Assay results as given in publication PMC12215964.
Positions count from the first letter of the chain named. No constants are given. Whether binding was seen depends on the method and setting. In cells and extracts the contact can be indirect. Some entries that bind do so weakly or less than the wild type. Tags and fused reporters may be left off the sequences shown.

Protein sequences, listed by entry. Tags and fused reporters are not part of them.
UniProt P19785: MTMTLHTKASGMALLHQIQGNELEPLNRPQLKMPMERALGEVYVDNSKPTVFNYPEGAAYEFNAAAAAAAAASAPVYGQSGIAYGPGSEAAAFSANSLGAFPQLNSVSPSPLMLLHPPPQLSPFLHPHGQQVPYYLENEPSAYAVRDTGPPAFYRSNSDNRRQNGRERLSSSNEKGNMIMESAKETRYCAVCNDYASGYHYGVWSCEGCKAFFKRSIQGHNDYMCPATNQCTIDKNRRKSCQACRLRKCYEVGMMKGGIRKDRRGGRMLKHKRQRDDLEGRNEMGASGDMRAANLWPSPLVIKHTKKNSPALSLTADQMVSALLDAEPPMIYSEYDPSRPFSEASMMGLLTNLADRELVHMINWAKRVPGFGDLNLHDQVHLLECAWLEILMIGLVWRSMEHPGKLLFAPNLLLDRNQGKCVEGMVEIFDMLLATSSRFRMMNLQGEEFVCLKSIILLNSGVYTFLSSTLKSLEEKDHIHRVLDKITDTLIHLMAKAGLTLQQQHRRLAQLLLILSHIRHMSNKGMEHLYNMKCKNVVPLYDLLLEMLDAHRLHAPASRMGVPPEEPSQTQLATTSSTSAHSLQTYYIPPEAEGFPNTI

Columns and labels:
[1] = target: T1, GFP- and HA-tagged mouse terminal nucleotidyltransferase 5C (TENT5C) (mouse) (UniProt Q5SSF7); experiment: co-IP; HEK293T cells cotransfected; lysates in Pierce IP lysis buffer with protease inhibitors; GFP-tagged TENT5 proteins precipitated with GFP nanobody linked to Sepharose, 2 h at 4 °C; washed 5 times with HIP buffer (50 mM Tris-Cl, 150 mM NaCl, 1% Triton X-100); ERα in the precipitates detected by anti-ERα blot
T1 sequence: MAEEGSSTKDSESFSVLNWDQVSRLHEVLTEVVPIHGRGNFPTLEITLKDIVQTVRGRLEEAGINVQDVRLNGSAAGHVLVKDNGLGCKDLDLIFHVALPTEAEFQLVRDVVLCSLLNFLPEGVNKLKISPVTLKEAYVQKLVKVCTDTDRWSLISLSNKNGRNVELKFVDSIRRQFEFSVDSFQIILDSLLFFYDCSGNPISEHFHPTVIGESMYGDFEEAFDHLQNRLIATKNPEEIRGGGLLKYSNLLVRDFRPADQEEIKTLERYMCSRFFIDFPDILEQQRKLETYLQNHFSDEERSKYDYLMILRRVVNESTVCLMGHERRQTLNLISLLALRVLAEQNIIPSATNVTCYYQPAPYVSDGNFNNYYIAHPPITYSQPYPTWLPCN

[2] = target: T2, GFP- and HA-tagged mouse TENT5C LXXLL (3) motif mutant, LXXAA (TENT5C L3m) (mouse) (UniProt Q5SSF7); experiment: as above
T2 sequence: T1 sequence with L335A, L336A

- binding [1]: binds
- binding [2]: no binding
Substance: mouse estrogen receptor α (ERα) (from UniProt P19785 1-599)
